Assay results taken from publication PMC8830441, “Interaction of TLK1 and AKTIP as a Potential Regulator of AKT Activation in Castration-Resistant Prostate Cancer Progression” (Pathophysiology, 2021).
These are yes or no findings as the source states them, for the method shown. Binding seen in cells or lysates may run through a third protein. Some entries that bind do so weakly or less than the wild type.

Chains of the proteins cited; added tags and fusions are not shown. Lines headed by an entry give the natural chain unless they say otherwise; changes in a name come on top. A line that says so, or that is headed by a name, gives the form on record, which may keep a tag or linker. Residues count along the entry.
UniProt Q9UKI8: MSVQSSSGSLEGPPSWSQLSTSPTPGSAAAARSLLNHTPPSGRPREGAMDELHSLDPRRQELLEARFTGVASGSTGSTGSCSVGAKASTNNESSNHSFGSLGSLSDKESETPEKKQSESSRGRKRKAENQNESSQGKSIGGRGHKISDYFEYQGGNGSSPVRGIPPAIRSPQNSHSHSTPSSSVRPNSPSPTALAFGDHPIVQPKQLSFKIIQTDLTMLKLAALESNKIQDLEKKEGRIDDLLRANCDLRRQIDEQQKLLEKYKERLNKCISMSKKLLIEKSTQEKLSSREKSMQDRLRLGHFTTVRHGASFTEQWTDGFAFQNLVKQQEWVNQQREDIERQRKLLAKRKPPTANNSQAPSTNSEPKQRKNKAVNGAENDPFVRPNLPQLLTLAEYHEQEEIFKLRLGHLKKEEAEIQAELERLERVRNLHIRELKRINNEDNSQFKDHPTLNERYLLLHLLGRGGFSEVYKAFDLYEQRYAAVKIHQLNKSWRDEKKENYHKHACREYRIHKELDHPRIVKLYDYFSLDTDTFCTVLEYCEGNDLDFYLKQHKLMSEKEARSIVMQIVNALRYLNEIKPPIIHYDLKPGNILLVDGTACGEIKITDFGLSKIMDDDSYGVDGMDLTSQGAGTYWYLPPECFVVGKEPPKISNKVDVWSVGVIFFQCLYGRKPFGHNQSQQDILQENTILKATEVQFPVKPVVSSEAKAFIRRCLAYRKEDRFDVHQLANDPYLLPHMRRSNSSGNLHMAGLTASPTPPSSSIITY
Full-length, wild-type recombinant His-tagged TLK1B: residues 218-766 of Q9UKI8

Legend:
[1] = target: Full-length, wild-type recombinant His-tagged TLK1B (human) (UniProt Q9UKI8); test: pull-down; His-TLK1B incubated with 400 µg of HEK 293 cell lysate on ice 30 min, isolated on Ni-NTA agarose beads, WB for AKTIP; only the target purified
[2] = target: endogenous TLK1 (human (endogenous in HEK 293 and LNCaP)) (UniProt Q9UKI8); test: co-IP; HEK 293 and LNCaP cell lysates, precipitated with TLK1 antiserum, protein A/G agarose beads, WB for AKTIP

B1: wild-type full-length human GST-AKTIP (natural protein, UniProt Q9H8T0 1-292, looked up)
chain: MNPFWSMSTSSVRKRSEGEEKTLTGDVKTSPPRTAPKKQLPSIPKNALPITKPTSPAPAAQSTNGTHASYGPFYLEYSLLAEFTLVVKQKLPGVYVQPSYRSALMWFGVIFIRHGLYQDGVFKFTVYIPDNYPDGDCPRLVFDIPVFHPLVDPTSGELDVKRAFAKWRRNHNHIWQVLMYARRVFYKIDTASPLNPEAAVLYEKDIQLFKSKVVDSVKVCTARLFDQPKIEDPYAISFSPWNPSVHDEAREKMLTQKKPEEQHNKSVHVAGLSWVKPGSVQPFSKEEKTVAT
notes: also called GST-tagged AKTIP; source: bacterial expression plasmid, recombinant, purified from bacteria according to the published literature
With B1 the binding [1] was “binds” and the binding [2] was “binds”.
